Some of the results follow.

Chains of the proteins cited; added tags and fusions are not shown. Lines headed by an entry give the natural chain unless they say otherwise; changes in a name come on top.
UniProt Q9Y5P6: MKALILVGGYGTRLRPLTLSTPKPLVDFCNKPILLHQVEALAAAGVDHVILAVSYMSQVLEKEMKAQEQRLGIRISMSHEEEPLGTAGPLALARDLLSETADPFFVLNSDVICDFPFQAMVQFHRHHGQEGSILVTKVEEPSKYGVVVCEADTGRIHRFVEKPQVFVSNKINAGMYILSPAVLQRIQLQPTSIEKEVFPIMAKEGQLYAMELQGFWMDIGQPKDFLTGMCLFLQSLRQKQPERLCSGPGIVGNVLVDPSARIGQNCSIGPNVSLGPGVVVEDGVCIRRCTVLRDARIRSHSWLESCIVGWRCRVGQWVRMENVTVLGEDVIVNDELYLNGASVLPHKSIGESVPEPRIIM
UniProt P28799: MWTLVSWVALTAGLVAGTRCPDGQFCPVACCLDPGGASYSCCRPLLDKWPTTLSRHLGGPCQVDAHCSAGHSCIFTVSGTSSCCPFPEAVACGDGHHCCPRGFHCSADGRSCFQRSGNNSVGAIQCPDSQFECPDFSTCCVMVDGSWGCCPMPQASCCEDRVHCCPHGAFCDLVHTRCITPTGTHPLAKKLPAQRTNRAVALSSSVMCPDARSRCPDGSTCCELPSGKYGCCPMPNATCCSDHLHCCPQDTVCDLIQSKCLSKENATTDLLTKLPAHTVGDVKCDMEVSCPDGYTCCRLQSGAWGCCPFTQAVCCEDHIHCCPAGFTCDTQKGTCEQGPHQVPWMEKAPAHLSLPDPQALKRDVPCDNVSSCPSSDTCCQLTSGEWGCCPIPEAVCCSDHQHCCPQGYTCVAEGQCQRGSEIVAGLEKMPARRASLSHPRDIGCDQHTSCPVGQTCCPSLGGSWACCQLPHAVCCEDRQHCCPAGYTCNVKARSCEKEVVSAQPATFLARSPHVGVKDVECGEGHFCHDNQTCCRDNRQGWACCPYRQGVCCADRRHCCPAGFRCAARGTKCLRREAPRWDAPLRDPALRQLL
UniProt P62993, whole entry, looked up: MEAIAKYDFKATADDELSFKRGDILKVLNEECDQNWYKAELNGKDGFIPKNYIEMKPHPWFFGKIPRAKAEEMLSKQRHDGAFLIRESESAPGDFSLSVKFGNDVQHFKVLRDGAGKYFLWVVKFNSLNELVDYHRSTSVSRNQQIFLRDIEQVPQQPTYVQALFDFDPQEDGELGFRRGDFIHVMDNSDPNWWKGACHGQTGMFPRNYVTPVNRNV
UniProt Q9BRT9, whole entry, looked up: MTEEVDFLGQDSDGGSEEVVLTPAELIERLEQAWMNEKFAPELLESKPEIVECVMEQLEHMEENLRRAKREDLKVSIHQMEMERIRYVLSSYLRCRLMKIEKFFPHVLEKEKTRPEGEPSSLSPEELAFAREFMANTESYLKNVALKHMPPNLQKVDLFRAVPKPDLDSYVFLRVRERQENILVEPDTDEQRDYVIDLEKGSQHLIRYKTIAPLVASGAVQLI
UniProt O75791: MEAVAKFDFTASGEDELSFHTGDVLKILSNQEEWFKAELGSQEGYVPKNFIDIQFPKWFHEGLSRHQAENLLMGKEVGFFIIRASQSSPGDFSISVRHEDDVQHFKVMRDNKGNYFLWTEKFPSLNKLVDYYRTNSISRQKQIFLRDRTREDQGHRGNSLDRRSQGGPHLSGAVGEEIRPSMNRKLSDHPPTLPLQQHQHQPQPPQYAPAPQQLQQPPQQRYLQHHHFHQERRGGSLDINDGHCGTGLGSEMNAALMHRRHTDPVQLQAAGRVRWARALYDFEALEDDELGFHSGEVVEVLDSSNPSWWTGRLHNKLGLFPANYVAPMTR
UniProt Q8N335: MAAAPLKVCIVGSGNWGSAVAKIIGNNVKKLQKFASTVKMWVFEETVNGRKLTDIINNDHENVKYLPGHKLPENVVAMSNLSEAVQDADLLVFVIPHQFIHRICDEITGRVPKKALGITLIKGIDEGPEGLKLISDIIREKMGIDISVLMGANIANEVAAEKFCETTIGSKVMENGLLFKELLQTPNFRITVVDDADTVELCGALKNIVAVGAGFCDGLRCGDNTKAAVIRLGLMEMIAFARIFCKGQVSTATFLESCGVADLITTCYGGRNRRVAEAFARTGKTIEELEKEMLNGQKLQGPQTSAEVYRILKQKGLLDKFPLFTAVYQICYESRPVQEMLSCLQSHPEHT
UniProt Q8IXQ4: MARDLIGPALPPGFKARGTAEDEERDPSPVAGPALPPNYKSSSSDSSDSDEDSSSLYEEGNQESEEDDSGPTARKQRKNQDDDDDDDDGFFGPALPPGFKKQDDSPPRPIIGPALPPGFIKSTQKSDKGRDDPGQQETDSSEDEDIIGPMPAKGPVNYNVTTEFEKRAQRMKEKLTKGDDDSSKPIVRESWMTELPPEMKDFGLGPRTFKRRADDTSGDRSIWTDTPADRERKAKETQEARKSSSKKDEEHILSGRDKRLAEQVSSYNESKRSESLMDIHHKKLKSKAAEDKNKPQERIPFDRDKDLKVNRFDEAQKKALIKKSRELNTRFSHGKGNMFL
UniProt P43304: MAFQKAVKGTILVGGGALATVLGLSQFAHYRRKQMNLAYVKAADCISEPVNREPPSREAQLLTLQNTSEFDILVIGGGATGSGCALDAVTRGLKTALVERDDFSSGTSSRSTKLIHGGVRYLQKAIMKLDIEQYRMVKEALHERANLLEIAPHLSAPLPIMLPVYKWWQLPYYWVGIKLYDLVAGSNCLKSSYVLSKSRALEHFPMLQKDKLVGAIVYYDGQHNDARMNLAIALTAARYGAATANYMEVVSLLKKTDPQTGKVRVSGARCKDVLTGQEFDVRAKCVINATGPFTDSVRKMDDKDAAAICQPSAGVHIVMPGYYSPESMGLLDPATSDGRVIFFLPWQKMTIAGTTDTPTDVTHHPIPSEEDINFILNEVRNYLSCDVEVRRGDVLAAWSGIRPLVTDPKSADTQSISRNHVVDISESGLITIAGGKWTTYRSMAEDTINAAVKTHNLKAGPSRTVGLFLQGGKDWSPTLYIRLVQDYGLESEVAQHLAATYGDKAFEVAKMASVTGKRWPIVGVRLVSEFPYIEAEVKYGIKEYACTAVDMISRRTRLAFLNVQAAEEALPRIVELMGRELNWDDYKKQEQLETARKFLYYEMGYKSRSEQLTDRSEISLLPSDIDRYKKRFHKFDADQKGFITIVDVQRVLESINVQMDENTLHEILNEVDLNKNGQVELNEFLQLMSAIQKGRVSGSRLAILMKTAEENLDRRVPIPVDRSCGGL
UniProt Q7Z2K8: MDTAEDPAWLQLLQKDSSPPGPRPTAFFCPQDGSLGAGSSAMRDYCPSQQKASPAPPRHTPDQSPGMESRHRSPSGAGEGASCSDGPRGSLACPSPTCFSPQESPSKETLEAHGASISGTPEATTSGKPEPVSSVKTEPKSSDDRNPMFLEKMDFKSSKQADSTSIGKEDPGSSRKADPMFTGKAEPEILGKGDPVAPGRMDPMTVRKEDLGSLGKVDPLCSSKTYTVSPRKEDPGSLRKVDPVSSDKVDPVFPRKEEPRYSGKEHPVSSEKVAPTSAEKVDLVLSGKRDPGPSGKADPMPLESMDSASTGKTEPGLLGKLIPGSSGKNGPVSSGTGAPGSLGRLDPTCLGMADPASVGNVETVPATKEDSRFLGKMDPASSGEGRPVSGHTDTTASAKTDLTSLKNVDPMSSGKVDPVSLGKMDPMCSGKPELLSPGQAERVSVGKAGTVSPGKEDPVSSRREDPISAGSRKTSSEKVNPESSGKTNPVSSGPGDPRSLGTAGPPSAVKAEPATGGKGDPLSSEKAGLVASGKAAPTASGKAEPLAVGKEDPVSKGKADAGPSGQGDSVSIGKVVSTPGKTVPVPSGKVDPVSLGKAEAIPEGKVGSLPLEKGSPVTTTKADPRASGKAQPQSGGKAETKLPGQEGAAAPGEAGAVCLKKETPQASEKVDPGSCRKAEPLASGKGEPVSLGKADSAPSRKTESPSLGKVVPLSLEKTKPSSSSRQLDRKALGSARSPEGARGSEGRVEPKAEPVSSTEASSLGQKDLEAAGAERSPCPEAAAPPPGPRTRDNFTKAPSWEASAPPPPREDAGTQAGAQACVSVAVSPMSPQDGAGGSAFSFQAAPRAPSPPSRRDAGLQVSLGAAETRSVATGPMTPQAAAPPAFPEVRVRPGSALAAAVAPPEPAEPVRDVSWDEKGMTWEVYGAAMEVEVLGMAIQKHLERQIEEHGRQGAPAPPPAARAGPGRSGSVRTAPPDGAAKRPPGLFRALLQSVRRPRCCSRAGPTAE
UniProt Q8TDQ7: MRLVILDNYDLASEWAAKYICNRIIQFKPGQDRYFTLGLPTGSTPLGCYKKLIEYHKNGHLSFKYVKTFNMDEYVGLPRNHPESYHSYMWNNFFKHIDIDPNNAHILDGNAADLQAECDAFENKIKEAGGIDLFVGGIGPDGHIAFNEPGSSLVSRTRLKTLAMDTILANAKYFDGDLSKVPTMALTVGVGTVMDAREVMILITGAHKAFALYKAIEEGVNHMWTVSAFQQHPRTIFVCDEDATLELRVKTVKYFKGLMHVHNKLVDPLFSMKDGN
UniProt Q9P2T1: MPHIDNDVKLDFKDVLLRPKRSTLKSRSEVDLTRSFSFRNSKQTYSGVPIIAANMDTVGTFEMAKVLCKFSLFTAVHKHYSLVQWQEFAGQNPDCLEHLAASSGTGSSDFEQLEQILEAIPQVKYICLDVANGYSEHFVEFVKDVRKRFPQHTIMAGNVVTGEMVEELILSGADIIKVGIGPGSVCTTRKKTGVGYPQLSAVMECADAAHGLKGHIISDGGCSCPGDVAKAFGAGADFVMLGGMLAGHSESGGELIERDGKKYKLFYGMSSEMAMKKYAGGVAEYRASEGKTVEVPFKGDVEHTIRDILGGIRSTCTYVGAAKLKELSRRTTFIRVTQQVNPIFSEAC
UniProt O43292: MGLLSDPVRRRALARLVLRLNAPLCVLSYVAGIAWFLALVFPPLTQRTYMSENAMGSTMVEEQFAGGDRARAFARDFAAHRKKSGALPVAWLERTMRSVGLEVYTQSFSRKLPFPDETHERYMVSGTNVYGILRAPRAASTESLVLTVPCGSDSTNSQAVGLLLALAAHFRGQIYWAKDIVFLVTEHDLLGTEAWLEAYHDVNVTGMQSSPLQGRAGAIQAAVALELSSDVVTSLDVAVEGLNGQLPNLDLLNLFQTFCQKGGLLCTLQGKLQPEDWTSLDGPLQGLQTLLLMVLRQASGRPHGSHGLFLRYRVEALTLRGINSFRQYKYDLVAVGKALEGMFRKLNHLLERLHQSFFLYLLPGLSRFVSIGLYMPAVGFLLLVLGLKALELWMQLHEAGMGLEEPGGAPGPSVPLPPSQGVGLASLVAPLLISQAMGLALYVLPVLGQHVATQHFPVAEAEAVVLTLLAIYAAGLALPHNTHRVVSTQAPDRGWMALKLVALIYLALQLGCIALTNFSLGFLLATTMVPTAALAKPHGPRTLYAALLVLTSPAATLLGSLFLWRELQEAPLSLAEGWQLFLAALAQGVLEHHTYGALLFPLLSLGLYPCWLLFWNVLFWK
UniProt Q5VW38: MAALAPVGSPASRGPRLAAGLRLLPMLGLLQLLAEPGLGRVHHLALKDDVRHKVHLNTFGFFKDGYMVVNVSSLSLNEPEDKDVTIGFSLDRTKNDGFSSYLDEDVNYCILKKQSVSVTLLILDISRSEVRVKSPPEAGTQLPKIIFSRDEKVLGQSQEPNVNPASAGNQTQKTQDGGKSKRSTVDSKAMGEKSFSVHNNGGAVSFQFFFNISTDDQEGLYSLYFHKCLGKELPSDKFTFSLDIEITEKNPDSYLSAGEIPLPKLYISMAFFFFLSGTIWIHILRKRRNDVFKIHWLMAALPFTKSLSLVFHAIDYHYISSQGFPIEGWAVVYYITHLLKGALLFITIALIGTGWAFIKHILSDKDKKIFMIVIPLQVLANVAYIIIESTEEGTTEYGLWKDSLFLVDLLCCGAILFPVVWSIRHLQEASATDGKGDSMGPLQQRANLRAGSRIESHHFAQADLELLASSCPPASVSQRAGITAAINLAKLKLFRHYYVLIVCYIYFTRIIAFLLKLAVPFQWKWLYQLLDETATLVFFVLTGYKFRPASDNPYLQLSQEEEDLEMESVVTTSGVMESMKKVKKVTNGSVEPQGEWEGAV
UniProt Q9HCN4, whole entry, looked up: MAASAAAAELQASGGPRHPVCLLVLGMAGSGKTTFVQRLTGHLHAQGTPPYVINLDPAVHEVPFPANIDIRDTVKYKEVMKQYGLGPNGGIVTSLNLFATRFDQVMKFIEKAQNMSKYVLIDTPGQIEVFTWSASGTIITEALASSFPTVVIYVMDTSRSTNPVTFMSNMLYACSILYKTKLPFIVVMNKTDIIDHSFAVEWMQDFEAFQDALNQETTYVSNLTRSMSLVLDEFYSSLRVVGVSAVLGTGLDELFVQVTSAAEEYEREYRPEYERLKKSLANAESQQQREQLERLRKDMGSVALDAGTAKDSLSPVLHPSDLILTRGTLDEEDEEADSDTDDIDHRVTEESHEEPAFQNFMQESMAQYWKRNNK

The text below walks through data of the supplement of paper PMC10849652.

Compound in the test: Cc1ncc(-c2ccnc(Nc3ccc(S(C)(=O)=O)cc3)n2)n1C(C)C
In words: log2 fold change, soluble protein after heating vs DMSO (PISA); higher = thermal stabilisation; K562 cells, 10 uM, 30 min; active = over 0.2 and 3.5 SD of the protein, either way, in both replicates (recomputed). In outline: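 K562 cells at 2×10^6 cells/mL were treated for 30 min with 10 μM compound, and aliquots were heated for 3 min over 48°C-58°C before pooling. Extraction used PBS with 0.5% NP-40 at 4°C, and soluble protein was the supernatant after 21,000xg for 90 min, measured by TMTpro 16plex LC-MS/MS with channel sums equalised. Thermal stability values, relative to control samples and from duplicates, are log2 fold changes.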
Regarding GMPPB isoform 2 (UniProt Q9Y5P6), the log2 fold change is inactive: 0.107.

On to GK (UniProt P32189), for which the log2 fold change is inactive: -0.031.

With GRN (UniProt P28799), the log2 fold change was inactive: -0.04.

Consider GRB2 (UniProt P62993), for which the log2 fold change is inactive: -0.014.

Turning to GINS4 (UniProt Q9BRT9), the log2 fold change was inactive: 0.018.

As to GRAP2 (UniProt O75791), the log2 fold change was inactive: -0.006.

Regarding GPD1L (UniProt Q8N335), the log2 fold change was inactive: -0.004.

Consider GNA13 (UniProt Q14344), for which the log2 fold change was inactive: 0.001.

As for GOSR1 (UniProt O95249), the log2 fold change was inactive: -0.001.

Consider GPATCH8 (UniProt Q9UKJ3), for which the log2 fold change is inactive: 0.111.

On to GPALPP1 (UniProt Q8IXQ4), for which the log2 fold change is inactive: -0.002.

GPD2 (UniProt P43304): the log2 fold change was inactive: -0.002.

On to GPRIN1 (UniProt Q7Z2K8), for which the log2 fold change is inactive: 0.012.

GPN3 isoform 2 (UniProt Q9UHW5): the log2 fold change was inactive: -0.009.

For GNPDA2 (UniProt Q8TDQ7), the log2 fold change was inactive: 0.021.

For the target GMPR2 isoform 2 (UniProt Q9P2T1), the log2 fold change is inactive: -0.017.

For GNE isoform 2 (UniProt Q9Y223), the log2 fold change is inactive: 0.058.

On to GPAA1 (UniProt O43292), for which the log2 fold change was inactive: -0.04.

For GPR107 (UniProt Q5VW38), the log2 fold change was inactive: 0.017.

On to GORASP2 isoform 3 (UniProt Q9H8Y8), for which the log2 fold change was inactive: 0.07.

In the case of GOLIM4 (UniProt O00461), the log2 fold change is inactive: 0.016.

For GPN1 isoform 5 (UniProt Q9HCN4), the log2 fold change is inactive: -0.041.
